Values quoted from earlier work in US20110184061A1, “THIO[…] […], METHODS OF MAKING AND METHODS OF USE THEREOF” (priority 2010, published 2011).

Tested on: rat model
Conditions: metabolites of thiocolchicoside, compared with thiocolchicoside

Structure (SMILES): COc1c(O)cc2c(c1OC)-c1ccc(SC)c(=O)cc1[C@@H](NC(C)=O)CC2 [aglycone derivative]
- muscle relaxant activity: no muscle relaxant activity
